Step yield and conjugation yield data for 19 substances are collected here from patent US6710168B1 (The Trustees of the University of Princeton, priority 1999, dated 2004).

The nature of this series: peptide synthesis. The settings on record: for step yield: late stage modification step; for conjugation yield: conjugation step.
Where [1] appears, read: TFA salt (deprotected products), AcOH salt (some protected intermediates).
The mark [2] stands for this setting: over 2 steps, TFA salt (deprotected products), AcOH salt (some protected intermediates).

With “Allyl N,N′-Diallyloxycarbonyl[6-N-Acetato-glucosamino]vancomycin”, the step yield under setting [1] is on record as 33%. With “Allyl N,N′-Dialoc-(6-N-thiocarbonyl Methylamino Glucose) Vancomycin”, under setting [1], the step yield was determined as 96%. For “Allyl N,N′-Dialoc-glucose-C6-N4-(4-chlorophenyl)benzyl Vancomycin”, the step yield (based on aldehyde, TFA salt (deprotected products), AcOH salt (some protected intermediates)) is reported as 61%, based on aldehyde. Turning to “Allyl N,N′-Dialoc-glucose-C6-N-4-(4-chlorophenyl)benzoyl Vancomycin”, the step yield under setting [1] was 82%. Still for that read-out and setting: with “Benzyl CBZ-tri-O-Methyl p-Methoxybenzyl Diacetate Vancomycin Aglycone” the figure was 97%.

In the case of “Di-{N,N′-Diallyloxycarbonyl-O-allyl-6-glucosamino Vancomycin}—C(O)CH2—(O)”, the conjugation yield under setting [1] is listed as 20%. As to “Glucose-C6-N-2-quinoxaloyl-vancosamine-N-4-(4-chlorophenyl)benzyl Vancomycin”, under setting [1], the step yield came out at 30%. The same measure, in the same setting: with “Glucose-C6-N-4-(4-chlorophenyl)benzyl Vancosamine-N4-4-(4-chlorophenyl)benzyl Vancomycin” the figure was 15%. For “Glucose-C6-N-5-(4-chlorophenyl)furan-1-methylene-vancosamine-N-4-(4-chlorophenyl)benzyl Vancomycin”, the step yield under setting [1] was 28%.

Take “Glucose-C6-N-thiocarbonyl Methylamino Vancomycin”: the step yield under setting [1] was determined as 17%.

With “N,N′-Diallyloxycarbonyl-methoxy-glycine-deleucine Aspartatic Acid Vancomycin”, under setting [2], the step yield was 62% over 2 steps. For “N,N′-Diallyloxycarbonyl-methoxy-glycine-deleucine Glucosamino-aspartate Vancomycin”, the conjugation yield under setting [2] came out at 60% over 2 steps. Consider “N,N′-Dialoc-allyl-glucose-C6-5-chloro-2-hydroxy-benzylamine Vancomycin”, for which, for the setting “AcOH salt”, the step yield was determined as 31%.

Regarding “N-Allyloxycarbonyl-N′-methoxyglycine Vancomycin”, the step yield under setting [1] was 62%.

As for “N-Allyloxycarbonyl-N′-methoxyglycine [N-Acetato-vancosamino] Vancomycin”, the step yield under setting [1] was 54%.

In the case of “N-Allyloxycarbonyl-methoxy-glycine-deleucine Vancomycin”, the step yield (over 3 steps, TFA salt (deprotected products), AcOH salt (some protected intermediates)) is on record as 58% over 3 steps. Take “Vancosamine-N-4-(4-chlorophenyl)benzyl, Glucose-C6-S-3-amino-5-mercapto-1,2,4-triazole Vancomycin”: the step yield under setting [1] is 90%.

On to “[2-(2,2-Dimethylacetoacetyl)-3,4,6-tri-O-benzyl-β-D-glucopyranoside]-N-CBZ-tetra-O-benzyl-diacetato Vancomycin Aglycone”, for which the conjugation yield under setting [1] was determined as 17%. With vancomycin, under “TFA salt”, the step yield turned out to be 75%.
